Where a chain is given by its changes, count along the chain named. No constants are given. Whether binding was seen depends on the method and setting. For some of these results: In cells and extracts the contact can be indirect. Some results given as binding are weak or reduced against the parent protein; the word gives no strength. Tags and fused reporters may be left off the sequences shown.

Assay [1] concerns the target normal OsphyC (OsphyC-w), yeast two-hybrid fusion (rice) (UniProt Q10CQ8). In words: two-hybrid; pGBKT7 and pGADT7 fusions co-transformed into yeast AH109; growth on SD/-Ade/-His/-Trp/-Leu for 3-4 days at 30 C; 5 mM 3-AT added to the selection medium to detect the strength of the interaction.
Assay [2] has as its target T1, OsphyB, yeast two-hybrid fusion (rice) (UniProt Q10MG9).
T1 sequence: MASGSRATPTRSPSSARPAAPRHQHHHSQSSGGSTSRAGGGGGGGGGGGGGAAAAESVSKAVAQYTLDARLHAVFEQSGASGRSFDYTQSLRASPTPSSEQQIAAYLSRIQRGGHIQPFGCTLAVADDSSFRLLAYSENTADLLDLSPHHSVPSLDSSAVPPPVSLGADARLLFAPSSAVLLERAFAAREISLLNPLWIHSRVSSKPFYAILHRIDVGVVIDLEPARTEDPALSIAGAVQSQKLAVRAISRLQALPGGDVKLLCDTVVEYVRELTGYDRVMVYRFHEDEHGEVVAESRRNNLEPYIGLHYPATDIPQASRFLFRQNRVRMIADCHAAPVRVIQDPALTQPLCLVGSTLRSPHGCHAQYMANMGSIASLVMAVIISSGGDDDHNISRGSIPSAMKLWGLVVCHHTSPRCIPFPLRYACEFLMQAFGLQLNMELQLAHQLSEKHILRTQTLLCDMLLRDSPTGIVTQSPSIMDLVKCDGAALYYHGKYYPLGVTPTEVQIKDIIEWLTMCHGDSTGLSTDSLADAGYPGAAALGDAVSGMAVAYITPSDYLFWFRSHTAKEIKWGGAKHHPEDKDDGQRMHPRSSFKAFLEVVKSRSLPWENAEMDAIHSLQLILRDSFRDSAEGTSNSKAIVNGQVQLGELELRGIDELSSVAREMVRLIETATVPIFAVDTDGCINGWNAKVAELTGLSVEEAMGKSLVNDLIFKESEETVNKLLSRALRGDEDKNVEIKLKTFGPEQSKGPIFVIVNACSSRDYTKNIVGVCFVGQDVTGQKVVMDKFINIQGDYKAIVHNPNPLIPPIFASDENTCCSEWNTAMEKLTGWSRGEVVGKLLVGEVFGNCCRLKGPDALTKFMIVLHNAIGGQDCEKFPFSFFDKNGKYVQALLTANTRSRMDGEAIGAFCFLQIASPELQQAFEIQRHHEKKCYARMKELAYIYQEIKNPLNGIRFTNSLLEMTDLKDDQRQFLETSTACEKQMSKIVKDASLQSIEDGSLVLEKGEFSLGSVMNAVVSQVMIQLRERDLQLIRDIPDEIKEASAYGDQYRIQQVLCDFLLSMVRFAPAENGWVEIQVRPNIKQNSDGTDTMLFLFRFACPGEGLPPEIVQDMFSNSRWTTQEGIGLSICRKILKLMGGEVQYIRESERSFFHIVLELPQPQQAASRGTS
The description is as above.

In a further assay the target is T2, CYFP-OsphyB (rice) (UniProt Q10MG9).
T2 sequence: T1 sequence
In words: split reporter; BiFC: NYFP and CYFP fusions (35S promoter) co-expressed in N. benthamiana pavement cells by agroinfiltration; confocal microscopy 48-72 h after infiltration.

Assay [3] deals with T3, OsphyC-w, BiFC fusions (OsphyC-w-NYFP and CYFP-OsphyC-w) (rice) (UniProt Q10CQ8).
T3 sequence: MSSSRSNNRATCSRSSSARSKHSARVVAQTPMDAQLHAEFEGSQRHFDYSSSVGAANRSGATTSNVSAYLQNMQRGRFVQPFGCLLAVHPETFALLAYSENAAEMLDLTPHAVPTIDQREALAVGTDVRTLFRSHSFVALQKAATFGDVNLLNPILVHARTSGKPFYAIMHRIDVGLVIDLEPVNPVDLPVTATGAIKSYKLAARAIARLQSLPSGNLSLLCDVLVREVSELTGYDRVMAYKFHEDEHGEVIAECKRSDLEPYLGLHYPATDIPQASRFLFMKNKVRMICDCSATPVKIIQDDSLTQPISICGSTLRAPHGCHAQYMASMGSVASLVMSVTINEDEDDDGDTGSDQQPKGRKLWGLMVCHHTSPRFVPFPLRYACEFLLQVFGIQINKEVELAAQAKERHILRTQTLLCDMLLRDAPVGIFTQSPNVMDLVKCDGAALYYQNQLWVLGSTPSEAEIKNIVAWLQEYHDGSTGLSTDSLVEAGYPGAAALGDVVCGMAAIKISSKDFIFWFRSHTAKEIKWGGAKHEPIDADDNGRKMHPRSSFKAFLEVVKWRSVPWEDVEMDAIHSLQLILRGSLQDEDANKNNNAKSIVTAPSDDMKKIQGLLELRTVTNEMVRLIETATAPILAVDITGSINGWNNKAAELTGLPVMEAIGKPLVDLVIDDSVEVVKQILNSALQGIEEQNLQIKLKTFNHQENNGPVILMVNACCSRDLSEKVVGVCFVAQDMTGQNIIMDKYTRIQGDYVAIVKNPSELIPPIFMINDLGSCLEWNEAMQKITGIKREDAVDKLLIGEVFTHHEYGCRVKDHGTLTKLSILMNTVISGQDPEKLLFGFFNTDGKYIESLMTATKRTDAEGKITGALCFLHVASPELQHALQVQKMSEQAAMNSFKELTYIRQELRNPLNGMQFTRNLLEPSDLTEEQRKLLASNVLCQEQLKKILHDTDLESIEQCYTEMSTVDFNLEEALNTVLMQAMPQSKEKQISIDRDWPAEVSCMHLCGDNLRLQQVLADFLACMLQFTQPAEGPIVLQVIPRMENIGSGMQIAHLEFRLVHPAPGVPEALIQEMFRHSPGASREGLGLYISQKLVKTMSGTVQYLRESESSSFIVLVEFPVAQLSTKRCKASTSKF
Described as above.

The target in assay [4] is T4, OsphyC-w, BiFC fusions (OsphyC-w-NYFP and CYFP-OsphyC-w) (rice), Q10CQ8.
T4 chain: T3 sequence
The assay is described as above. As to conditions: remark: other sources report otherwise.

The target of assay [5] is mutational OsphyC (OsphyC-m), yeast two-hybrid fusion (rice) (UniProt Q10CQ8). In words: two-hybrid; pGBKT7 and pGADT7 fusions co-transformed into yeast AH109; growth on SD/-Ade/-His/-Trp/-Leu for 3-4 days at 30 C; 5 mM 3-AT added to the selection medium to detect the strength of the interaction.

B1: normal OsphyC (OsphyC-w), yeast two-hybrid fusion (protein, UniProt Q10CQ8 1-1137)
chain: T3 sequence
With B1, the figures for the binding result in assay [1] and in assay [2] were “binds weakly” and “binds”, respectively.

B2: OsphyC-m-NYFP (protein, UniProt Q10CQ8 1-1137)
chain: T3 sequence with S577T
Regarding B2, the binding entry (with CYFP-OsphyB (rice); in assay [3]) was “no binding” each time.

B3: OsphyC-w, BiFC fusions (OsphyC-w-NYFP and CYFP-OsphyC-w), Q10CQ8 1-1137 (protein)
chain: T3 sequence
For the molecule B3, the binding entry in assay [4] is on record as “binds”.

B4: OsphyC-w, BiFC fusions (OsphyC-w-NYFP and CYFP-OsphyC-w) (protein, UniProt Q10CQ8 1-1137)
chain: T3 sequence
Turning to B4, in the assay with CYFP-OsphyB (rice), the binding result is “binds”.

B5: mutational OsphyC (OsphyC-m), yeast two-hybrid fusion (protein, UniProt Q10CQ8 1-1137)
chain: T3 sequence with S577T
With B5, in assay [5], the binding entry was “no binding”.
